From the supplement of paper PMC10849652
The other results are listed elsewhere or left out.

By UniProt entry, the sequences of proteins in these tests, tags left out. Where a name states a change or a piece, a line headed by the entry shows the natural chain unless it says otherwise.
UniProt Q8N2K1: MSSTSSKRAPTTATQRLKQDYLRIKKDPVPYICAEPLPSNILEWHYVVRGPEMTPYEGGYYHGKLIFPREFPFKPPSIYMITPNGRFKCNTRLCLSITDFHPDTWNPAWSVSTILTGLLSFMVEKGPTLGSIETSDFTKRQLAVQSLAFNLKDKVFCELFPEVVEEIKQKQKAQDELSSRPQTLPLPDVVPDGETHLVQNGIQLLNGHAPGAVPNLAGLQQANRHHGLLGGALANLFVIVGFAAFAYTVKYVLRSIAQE
UniProt Q96ET8: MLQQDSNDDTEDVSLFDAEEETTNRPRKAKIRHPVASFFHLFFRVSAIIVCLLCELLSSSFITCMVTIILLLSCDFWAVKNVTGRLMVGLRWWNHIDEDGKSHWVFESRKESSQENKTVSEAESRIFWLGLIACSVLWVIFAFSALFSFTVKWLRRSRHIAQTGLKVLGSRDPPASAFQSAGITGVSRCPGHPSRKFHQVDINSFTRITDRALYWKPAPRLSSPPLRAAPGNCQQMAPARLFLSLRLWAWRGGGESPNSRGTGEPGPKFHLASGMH
UniProt Q96AE7: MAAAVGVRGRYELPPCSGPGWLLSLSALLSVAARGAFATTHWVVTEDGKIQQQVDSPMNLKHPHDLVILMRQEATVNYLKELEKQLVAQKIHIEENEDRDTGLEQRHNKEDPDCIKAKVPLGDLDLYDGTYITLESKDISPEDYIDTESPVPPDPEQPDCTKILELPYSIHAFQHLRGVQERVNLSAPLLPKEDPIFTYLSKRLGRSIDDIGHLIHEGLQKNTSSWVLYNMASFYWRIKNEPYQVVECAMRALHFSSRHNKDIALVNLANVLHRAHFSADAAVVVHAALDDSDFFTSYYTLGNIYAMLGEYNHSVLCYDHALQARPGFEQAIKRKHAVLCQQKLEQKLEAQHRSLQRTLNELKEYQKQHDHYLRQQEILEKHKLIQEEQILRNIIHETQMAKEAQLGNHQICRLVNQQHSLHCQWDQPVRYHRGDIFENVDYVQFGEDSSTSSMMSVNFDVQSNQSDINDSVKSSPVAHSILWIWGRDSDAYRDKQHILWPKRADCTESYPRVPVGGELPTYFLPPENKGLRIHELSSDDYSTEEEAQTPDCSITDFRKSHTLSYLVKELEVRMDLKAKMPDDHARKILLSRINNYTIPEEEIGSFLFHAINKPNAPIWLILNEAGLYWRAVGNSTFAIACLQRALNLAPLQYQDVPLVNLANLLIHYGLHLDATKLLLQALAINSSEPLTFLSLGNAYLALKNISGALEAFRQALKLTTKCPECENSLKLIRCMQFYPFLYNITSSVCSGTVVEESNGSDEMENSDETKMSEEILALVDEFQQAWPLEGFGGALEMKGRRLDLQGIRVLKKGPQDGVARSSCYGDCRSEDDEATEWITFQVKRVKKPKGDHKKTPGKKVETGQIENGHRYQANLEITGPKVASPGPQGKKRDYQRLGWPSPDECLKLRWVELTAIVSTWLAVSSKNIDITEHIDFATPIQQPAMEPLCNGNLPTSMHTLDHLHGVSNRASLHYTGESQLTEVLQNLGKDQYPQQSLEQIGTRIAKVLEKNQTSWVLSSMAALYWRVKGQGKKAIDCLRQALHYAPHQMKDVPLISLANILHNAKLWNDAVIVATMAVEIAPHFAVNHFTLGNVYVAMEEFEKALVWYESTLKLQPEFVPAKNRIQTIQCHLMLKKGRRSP
UniProt A2RUC4: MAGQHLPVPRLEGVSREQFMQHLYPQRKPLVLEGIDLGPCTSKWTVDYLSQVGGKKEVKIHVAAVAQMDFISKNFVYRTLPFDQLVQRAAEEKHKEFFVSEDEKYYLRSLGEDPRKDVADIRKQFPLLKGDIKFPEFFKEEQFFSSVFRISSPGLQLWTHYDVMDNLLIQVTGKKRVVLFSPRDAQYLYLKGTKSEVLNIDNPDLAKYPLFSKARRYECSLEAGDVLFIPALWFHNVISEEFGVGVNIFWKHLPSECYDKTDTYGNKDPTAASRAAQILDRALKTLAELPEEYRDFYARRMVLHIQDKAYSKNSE
UniProt Q9H0U9: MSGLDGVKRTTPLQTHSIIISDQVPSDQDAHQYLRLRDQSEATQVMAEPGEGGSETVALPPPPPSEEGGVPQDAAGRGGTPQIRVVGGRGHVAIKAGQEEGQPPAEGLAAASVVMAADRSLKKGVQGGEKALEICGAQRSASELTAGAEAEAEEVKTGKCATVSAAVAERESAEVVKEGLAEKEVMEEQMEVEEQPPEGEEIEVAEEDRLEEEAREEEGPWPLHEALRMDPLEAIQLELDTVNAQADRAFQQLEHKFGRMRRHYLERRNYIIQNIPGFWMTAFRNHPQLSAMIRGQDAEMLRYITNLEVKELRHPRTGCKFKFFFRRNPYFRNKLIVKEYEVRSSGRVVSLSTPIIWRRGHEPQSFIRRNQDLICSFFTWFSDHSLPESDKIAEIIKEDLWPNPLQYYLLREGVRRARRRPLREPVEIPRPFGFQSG
UniProt Q16881, whole entry, looked up: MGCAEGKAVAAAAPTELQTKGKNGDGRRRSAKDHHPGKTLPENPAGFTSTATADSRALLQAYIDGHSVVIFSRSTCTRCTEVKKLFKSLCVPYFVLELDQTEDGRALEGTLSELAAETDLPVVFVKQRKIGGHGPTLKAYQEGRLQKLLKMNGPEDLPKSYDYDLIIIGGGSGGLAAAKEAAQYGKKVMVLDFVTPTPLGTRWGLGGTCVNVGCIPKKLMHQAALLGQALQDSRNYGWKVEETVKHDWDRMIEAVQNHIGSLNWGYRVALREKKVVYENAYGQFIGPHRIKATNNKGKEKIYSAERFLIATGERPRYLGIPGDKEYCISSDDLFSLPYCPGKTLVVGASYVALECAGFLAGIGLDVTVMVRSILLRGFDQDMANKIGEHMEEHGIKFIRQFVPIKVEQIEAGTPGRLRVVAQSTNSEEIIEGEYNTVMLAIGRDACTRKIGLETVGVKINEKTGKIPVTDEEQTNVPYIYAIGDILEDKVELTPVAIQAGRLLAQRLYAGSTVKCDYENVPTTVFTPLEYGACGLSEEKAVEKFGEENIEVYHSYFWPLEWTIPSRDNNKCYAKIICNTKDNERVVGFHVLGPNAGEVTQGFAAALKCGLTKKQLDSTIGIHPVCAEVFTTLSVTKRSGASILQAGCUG
UniProt Q8WUA8: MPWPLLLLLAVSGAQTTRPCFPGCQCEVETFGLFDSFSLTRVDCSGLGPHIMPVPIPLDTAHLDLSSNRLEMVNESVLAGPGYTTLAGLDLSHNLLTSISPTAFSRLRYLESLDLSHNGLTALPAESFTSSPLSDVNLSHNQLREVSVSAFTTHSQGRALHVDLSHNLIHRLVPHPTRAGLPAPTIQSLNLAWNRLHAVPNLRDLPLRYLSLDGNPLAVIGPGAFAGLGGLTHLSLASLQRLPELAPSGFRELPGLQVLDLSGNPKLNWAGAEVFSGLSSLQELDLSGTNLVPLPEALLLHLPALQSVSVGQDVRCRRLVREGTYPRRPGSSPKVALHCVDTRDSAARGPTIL
UniProt Q3B726, whole entry, looked up: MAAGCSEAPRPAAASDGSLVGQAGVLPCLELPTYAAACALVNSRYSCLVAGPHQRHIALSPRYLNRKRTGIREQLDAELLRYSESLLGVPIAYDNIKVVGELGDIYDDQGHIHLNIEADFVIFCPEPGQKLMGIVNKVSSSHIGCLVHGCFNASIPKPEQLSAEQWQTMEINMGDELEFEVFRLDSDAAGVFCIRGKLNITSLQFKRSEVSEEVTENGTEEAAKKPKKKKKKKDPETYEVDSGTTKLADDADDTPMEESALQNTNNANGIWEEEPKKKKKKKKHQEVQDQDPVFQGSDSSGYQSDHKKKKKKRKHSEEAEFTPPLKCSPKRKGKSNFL
UniProt Q12999: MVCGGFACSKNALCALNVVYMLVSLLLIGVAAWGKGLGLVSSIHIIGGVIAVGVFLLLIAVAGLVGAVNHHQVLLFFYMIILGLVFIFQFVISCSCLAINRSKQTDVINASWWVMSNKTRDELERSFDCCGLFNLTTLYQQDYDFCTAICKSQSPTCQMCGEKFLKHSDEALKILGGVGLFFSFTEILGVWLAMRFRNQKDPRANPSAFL
UniProt Q16762: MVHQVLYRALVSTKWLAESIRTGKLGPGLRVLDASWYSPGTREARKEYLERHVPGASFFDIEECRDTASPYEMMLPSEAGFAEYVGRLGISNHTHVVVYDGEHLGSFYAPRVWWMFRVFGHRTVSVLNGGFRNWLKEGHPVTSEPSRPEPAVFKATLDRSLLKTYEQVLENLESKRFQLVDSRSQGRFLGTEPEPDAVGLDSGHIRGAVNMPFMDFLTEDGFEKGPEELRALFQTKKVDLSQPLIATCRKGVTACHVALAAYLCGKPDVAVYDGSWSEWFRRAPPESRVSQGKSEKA
UniProt Q5VYS8: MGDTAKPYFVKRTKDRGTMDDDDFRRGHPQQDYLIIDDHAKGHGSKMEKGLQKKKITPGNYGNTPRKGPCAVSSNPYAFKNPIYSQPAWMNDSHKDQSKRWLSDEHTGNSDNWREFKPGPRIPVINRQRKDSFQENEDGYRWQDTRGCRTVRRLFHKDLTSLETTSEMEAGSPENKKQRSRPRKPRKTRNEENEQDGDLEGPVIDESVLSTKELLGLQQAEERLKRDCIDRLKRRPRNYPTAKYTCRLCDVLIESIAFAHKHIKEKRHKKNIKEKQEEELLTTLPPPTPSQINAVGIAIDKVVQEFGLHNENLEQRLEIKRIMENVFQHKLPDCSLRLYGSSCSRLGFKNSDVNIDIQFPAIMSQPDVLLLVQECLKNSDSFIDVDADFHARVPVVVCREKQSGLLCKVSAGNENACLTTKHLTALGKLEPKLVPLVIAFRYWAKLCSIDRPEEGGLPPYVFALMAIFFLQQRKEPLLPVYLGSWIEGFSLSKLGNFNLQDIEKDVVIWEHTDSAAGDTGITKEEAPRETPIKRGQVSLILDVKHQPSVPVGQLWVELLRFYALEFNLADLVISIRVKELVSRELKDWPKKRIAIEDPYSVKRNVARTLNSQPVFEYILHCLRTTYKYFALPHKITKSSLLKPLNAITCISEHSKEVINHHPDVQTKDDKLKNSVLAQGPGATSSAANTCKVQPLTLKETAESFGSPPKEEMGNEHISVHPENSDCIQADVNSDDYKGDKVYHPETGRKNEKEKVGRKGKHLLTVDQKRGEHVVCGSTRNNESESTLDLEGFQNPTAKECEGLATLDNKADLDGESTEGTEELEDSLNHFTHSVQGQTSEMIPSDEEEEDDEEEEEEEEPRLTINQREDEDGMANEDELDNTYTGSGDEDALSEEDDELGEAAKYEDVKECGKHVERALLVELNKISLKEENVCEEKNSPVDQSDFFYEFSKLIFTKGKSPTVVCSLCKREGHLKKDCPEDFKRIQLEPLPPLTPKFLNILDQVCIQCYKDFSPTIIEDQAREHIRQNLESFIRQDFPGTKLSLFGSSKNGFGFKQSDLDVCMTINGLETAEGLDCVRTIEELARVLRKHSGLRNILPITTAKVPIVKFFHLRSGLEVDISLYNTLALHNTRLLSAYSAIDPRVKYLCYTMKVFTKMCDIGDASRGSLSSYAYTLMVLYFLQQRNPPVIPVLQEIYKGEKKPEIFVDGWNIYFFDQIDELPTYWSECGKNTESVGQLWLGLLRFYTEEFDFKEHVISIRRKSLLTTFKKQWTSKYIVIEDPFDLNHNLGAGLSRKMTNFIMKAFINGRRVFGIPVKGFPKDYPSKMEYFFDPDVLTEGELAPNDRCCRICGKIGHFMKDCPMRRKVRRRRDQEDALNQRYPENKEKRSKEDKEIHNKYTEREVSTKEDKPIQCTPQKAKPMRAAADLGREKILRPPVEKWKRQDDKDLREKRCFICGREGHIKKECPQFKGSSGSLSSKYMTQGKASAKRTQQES
UniProt Q96RR1: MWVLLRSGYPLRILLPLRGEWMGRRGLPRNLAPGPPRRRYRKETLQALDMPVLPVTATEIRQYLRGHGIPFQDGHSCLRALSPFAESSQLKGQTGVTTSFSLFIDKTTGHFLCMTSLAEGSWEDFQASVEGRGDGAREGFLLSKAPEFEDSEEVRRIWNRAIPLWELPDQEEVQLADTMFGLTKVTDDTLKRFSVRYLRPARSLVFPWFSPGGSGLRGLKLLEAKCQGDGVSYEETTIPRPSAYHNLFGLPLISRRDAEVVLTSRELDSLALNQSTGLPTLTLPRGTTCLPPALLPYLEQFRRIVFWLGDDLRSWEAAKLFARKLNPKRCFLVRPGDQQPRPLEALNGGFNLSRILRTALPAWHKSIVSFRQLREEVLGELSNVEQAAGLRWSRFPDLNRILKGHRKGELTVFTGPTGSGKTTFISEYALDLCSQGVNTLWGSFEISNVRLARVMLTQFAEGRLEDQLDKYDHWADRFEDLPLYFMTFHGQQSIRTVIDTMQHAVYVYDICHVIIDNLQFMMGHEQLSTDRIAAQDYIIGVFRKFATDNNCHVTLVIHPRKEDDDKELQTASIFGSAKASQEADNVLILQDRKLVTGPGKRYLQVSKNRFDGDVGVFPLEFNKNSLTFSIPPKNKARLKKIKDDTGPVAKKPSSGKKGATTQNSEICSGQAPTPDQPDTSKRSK
UniProt O75896: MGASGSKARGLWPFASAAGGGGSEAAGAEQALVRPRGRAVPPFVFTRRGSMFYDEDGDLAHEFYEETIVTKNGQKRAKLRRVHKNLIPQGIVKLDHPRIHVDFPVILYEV

Compound: CC[C@@H]1C(=O)N(C)c2cnc(Nc3ccc(C(=O)N[C@H]4CC[C@H](N5CCN(CC6CC6)CC5)CC4)cc3OC)nc2N1C(C)C [volasertib]
Assay: log2 fold change, soluble protein after heating vs DMSO (PISA); higher = thermal stabilisation; K562 cells, 10 uM, 30 min; active = over 0.2 and 3.5 SD of the protein, either way, in both replicates (recomputed)
In short: (§1)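 K562 cells at 2×10^6 cells/mL were given 10 μM compound for 30 min. Aliquots then went through 3 min of heating across 48°C-58°C, were pooled, and were extracted in PBS with 0.5% NP-40 at 4°C, and the supernatant after 21,000xg for 90 min was quantified by TMTpro 16plex LC-MS/MS with channel sums equalised. Thermal stability relative to control samples, from duplicates, is given as log2 fold change.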

Target	log2 fold change
UBE2J2 isoform 3 (UniProt Q8N2K1)	inactive: -0.157
TVP23C (UniProt Q96ET8)	inactive: 0.068
TTC17 isoform 2 (UniProt Q96AE7)	inactive: 0.185
UBAP2L (UniProt F8W726)	inactive: -0.002
TYW5 (UniProt A2RUC4)	inactive: 0.276
TYK2 (UniProt P29597)	inactive: -0.179
TSPYL1 (UniProt Q9H0U9)	inactive: -0.033
TXNRD1 isoform 7 (UniProt Q16881)	inactive: -0.106
TSKU (UniProt Q8WUA8)	inactive: 0.043
TUBGCP5 (UniProt Q96RT8)	inactive: 0.022
TWISTNB (UniProt Q3B726)	inactive: 0.027
TTC21B (UniProt Q7Z4L5)	inactive: 0.149
TSPAN31 (UniProt Q12999)	inactive: 0.003
TST (UniProt Q16762)	inactive: 0.065
TUBA4A (UniProt C9JJQ8)	inactive: 0.099

Compound: CC[C@H](C)N1C=C(C2=C(C=C(C=C21)C3=CN=C(C=C3)N4CCNCC4)C(=O)NCC5=C(C=C(NC5=O)C)C)C
Assay: as above
In short: as §1

Target	log2 fold change
TYRO3 (UniProt Q06418)	inactive: 0.157
TUT7 (UniProt Q5VYS8)	inactive: 0.025
UBAP2L (UniProt F8W726)	inactive: -0.094
TSPYL1 (UniProt Q9H0U9)	inactive: 0.001
TUBGCP5 (UniProt Q96RT8)	inactive: 0.137
U2AF1L5 (UniProt P0DN76)	inactive: 0.045
TWNK (UniProt Q96RR1)	inactive: 0.069
TSPAN31 (UniProt Q12999)	inactive: 0.289
TUSC2 (UniProt O75896)	inactive: -0.056
TST (UniProt Q16762)	inactive: 0.014

Compound: CC[C@H](C)[C@@H](C(=O)N[C@@H]([C@@H](C)O)C(=O)N[C@@H](CC(C)C)C(=O)[C@]1(CO1)C)NC(=O)[C@H]([C@@H](C)CC)N(C)C(=O)C [epoxomicin]
Assay: as above
In short: as §1

Target	log2 fold change
UBE2J2 isoform 3 (UniProt Q8N2K1)	inactive: 0.254
TYRO3 (UniProt Q06418)	inactive: 0.21
TUT7 (UniProt Q5VYS8)	inactive: -0.156
TYW5 (UniProt A2RUC4)	inactive: -0.092
TSPAN17 isoform 4 (UniProt Q96FV3)	inactive: -0.07
TXNRD1 isoform 7 (UniProt Q16881)	inactive: 0.155
TUBGCP5 (UniProt Q96RT8)	inactive: 0.001
TWNK (UniProt Q96RR1)	inactive: 0.064
TTC37 (UniProt Q6PGP7)	inactive: -0.532
TWISTNB (UniProt Q3B726)	inactive: 0.114
TSPAN31 (UniProt Q12999)	inactive: 0.079
TTK (UniProt P33981)	inactive: -0.138
TUSC2 (UniProt O75896)	inactive: 0.21
TST (UniProt Q16762)	inactive: -0.128

Compound: CCn1c(C(=O)N(C2CC2)C2CC2)cc2c3c(ncn3C)c(Nc3cc(C)n(C)n3)nc21
Assay: as above
In short: as §1

Target	log2 fold change
UBE2L6 (UniProt O14933)	inactive: -0.056
TTC14 (UniProt Q96N46)	inactive: -0.08
TTC17 isoform 2 (UniProt Q96AE7)	inactive: -0.06
TYW5 (UniProt A2RUC4)	inactive: -0.088
TSPAN17 isoform 4 (UniProt Q96FV3)	inactive: 0.071
TSPAN4 (UniProt O14817)	inactive: -0.013
TSPYL1 (UniProt Q9H0U9)	inactive: -0.074
TSKU (UniProt Q8WUA8)	inactive: -0.103
TUBGCP5 (UniProt Q96RT8)	inactive: 0.031
TWNK (UniProt Q96RR1)	inactive: -0.032
TTR (UniProt P02766)	inactive: 0.113
TWISTNB (UniProt Q3B726)	inactive: 0.009
TSPAN31 (UniProt Q12999)	inactive: -0.188
TUSC2 (UniProt O75896)	inactive: 0.002
TST (UniProt Q16762)	inactive: 0.091
UBE2L5, A0A1B0GUS4	inactive: 0.14

Compound: CCn1cc(-c2ccnc3[nH]c(-c4cccc(CN(C)C)c4)cc23)c(-c2ccc(NC(=O)N(C)C)cc2)n1
Assay: as above
In short: as §1

Target	log2 fold change
UBE2J2 isoform 3 (UniProt Q8N2K1)	inactive: -0.418
TVP23C (UniProt Q96ET8)	inactive: -0.019
TUT7 (UniProt Q5VYS8)	inactive: -0.148
TTC17 isoform 2 (UniProt Q96AE7)	inactive: -0.06
UBAP2L (UniProt F8W726)	inactive: 0.025
TYW5 (UniProt A2RUC4)	inactive: -0.011
TXNRD1 isoform 7 (UniProt Q16881)	inactive: -0.501
TUBGCP5 (UniProt Q96RT8)	inactive: 0.031
TWISTNB (UniProt Q3B726)	inactive: -0.085

Compound: CN(C)CC(=O)Nc1ccc2[nH]c(=O)c3ccccc3c2c1
Assay: as above
In short: as §1

Target	log2 fold change
TTC26	inactive: -0.088
UBE2J2 isoform 3 (UniProt Q8N2K1)	inactive: 0.04
TVP23C (UniProt Q96ET8)	inactive: -0.025
TYW5 (UniProt A2RUC4)	inactive: 0.092
TSPYL4 (UniProt Q9UJ04)	inactive: 0.123
TXNRD1 isoform 7 (UniProt Q16881)	inactive: -0.074
TSKU (UniProt Q8WUA8)	inactive: -0.281
U2AF1L5 (UniProt P0DN76)	inactive: 0.138
TWNK (UniProt Q96RR1)	inactive: -0.027
TTC37 (UniProt Q6PGP7)	inactive: 0.028
TWISTNB (UniProt Q3B726)	inactive: 0.048
TTK (UniProt P33981)	inactive: -0.079
TST (UniProt Q16762)	inactive: 0.071
TUBA4A (UniProt C9JJQ8)	inactive: 0.09
UBE2L5, A0A1B0GUS4	inactive: -0.049
